We go through 2 molecules from patent US20240092919A1.

Sequences of proteins named here, by UniProt entry; tags and fusion partners are left off. A change or cut given only in a name is not applied to a line headed by its entry.
UniProt P01848: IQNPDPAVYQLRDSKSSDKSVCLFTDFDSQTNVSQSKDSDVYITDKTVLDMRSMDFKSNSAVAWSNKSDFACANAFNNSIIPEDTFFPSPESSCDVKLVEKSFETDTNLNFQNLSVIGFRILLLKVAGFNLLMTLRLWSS
UniProt P01850: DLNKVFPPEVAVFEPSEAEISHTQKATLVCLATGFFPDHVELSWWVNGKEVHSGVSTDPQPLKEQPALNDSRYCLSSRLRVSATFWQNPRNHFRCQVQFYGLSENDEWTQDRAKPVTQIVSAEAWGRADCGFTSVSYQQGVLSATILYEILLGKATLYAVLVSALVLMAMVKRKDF

In test [1] the target is Human T cell receptor on human primary T cells (human) (UniProt P01848+P01850). As to the kind of experiment: flow cytometry competition on human primary T cells; tagless ISVD titrated against a fixed concentration of Flag3-His6-tagged ligand, labelled T017000624 on the sheet; anti-FLAG M2 + PE goat anti-mouse; MFI (mean PE) [panel human primary T cells]. For orientation: In flow cytometry, cells or beads pass a laser one at a time.

Test [2] has as its target human TCR on human primary T cells (human) (UniProt P01848+P01850). As to the kind of experiment: flow cytometry competition on human primary T cells.

These are yes or no findings as the source states them, for the method shown. Some entries that bind do so weakly or less than the wild type.

B1: T017000679 (VHH)
VHH: DVQLVESGGGVVQPGGSLRLSCVASGYVHKINFYGWYRQAPGKEREKVAHISIGDQTDYADSAKGRFTISRDESKNTVYLQMNSLRPEDTALYYCRALSRIWPYDYWGQGTLVTVSS
Consider B1, for which the binding result in test [1] and in test [2] was “binds” each time.

B2: T017000681 (VHH)
VHH: DVQLVESGGGVVQPGGSLRLSCVASGYVHKINFYGWYRQAPGKEREKVAHISIGDQTDYADSAKGRFTISRDESKNTVYLQMNSLRPEDTATYYCRALSRIWPYDYWGQGTLVTVSS
Turning to B2, the binding result in test [1] and in test [2] was “binds” throughout.
